At least one structure is not confirmed: it was looked up by name or label, or the drawing left a doubt.
How the values were obtained:
[1] = tested on: experimental MMP mouse model (anti-mLAMα3 IgG induced); assay: Macroscopic affected eye area in experimental MMP; format: in vivo, C57Bl/6 (B6) mice; conditions: DF2156A topical eyedrops, MP i.p. once daily
Description: Adult C57Bl/6 (B6) mice (male and female) aged at least 6 weeks old were used. Animals were maintained on a 12-h light-dark cycle at the animal facility of the University of Lübeck. Mice were held under SPF conditions and fed acidified drinking water and standard chow ad libitum. Protocols were approved by the Animal Rights Commission of the Ministry of Agriculture and Environment, Schleswig-Holstein.
For production of anti-mLAMα3 IgG, New Zealand White rabbits were immunized subcutaneously with […] of an equimolar mixture of the 2 purified recombinant proteins (aa1656-1985 and aa2756-3330 of murine Laminin alpha3 chain, produced in E. coli as disclosed by Heppe, E. N., et al., J Invest Dermatol, 2017, 137, 1709-1718) suspended in complete Freund's adjuvant. […] Reactivity of IgG fractions was analyzed by IF microscopy on murine skin (Sitaru et al., J Immunol 2006, 177: 3461-8). […] From this experiment, the amount of antibodies that leads to moderate experimental MMP was determined; i.e. the amount needed to induce disease development with moderate involvement of the conjunctiva (i.e. score of 1-3 in a maximum of 50% of the animals on day 12) in the model of antibody transfer-induced MMP. For this purpose, the intensity of the separation of the conjunctiva is determined histologically. […] The amount needed was determined to be 5 mg/injection of anti-mLAMα3 IgG. […]

[2] = tested on: experimental MMP mouse model (anti-mLAMα3 IgG induced); assay: Severity of oral lesions by endoscopy (oral score) in experimental MMP; format: in vivo, C57Bl/6 (B6) mice; conditions: day 28; vs vehicle; DF2156A eyedrops, MP i.p.; maximum score 4

With C[C@H]1C[C@@H]2[C@H]([C@@H](O)C[C@@]3(C)[C@H]2CC[C@]3(O)C(=O)CO)[C@@]2(C)C=CC(=O)C=C12 [MP, Methylprednisolone, reference compound] the “extent of macroscopic affected eye area” value ([1]; day 12) was “reduction”, the “extent of affected eye area (AUC over 28 days)” value ([1]; day 28) was “reduction” and the “severity of oral lesions (oral score)” value [2] was “significantly increased”.

Source: US20260216292A1, “CXCL8 INHIBITORS FOR USE IN THE TREATMENT OF OCULAR MUCOUS MEMBRANE PEMPHIGOID AND/OR ORAL MUCOUS MEMBRANE PEMPHIGOID” (DOMPE' FARMACEUTICI SPA, priority 2023, published 2026)
